In PubChem BioAssay AID2551 (National Center for Advancing Translational Sciences (NCATS), 2010):
The whole screen tested about 310,000 compounds, of which about 17,000 (5.5%) were called active. The inconclusive results got no clear call from the source; some entries with a clear call stand among them for comparison. Calls follow the shape of the dose curve; as a rule, active = well fitted inhibition curve with a large enough effect; inconclusive = small, poorly fitted or top-dose-only effect, or effect the other way; inactive = no such curve, though single readings can be large or run the other way. Potencies of inconclusive entries are doubtful fits and often do not repeat.

By UniProt entry, the sequences of proteins in these tests, tags left out. Where a name states a change or a piece, a line headed by the entry shows the natural chain unless it says otherwise.
UniProt P51450: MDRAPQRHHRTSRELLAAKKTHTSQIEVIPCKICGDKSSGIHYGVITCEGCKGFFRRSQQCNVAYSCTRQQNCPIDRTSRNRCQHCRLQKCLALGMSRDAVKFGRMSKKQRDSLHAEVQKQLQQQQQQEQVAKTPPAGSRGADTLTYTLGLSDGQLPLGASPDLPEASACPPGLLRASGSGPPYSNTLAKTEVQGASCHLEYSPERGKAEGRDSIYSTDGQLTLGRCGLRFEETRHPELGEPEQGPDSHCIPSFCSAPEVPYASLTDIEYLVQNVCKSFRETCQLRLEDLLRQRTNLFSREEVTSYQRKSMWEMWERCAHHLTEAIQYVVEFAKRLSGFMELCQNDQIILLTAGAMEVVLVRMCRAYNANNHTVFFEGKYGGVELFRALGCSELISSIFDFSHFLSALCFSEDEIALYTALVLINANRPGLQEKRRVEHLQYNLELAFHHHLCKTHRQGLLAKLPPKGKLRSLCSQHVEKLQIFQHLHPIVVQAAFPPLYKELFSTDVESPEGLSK

Molecular target: Nuclear receptor ROR-gamma (Mus musculus) (UniProt P51450)
Experiment: qHTS for inhibitors of ROR gamma transcriptional activity; also: nearly all actives have a fitted effect of over 60% in size
Details: Drosophila S2 Gal4-RORgamma UAS-luciferase reporter, 20 h; series mostly up to 53.6 µM
Procedure, shortened: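 Using a luciferase readout, inhibitors were identified by reduced reporter activity in Drosophila cells coexpressing a copper-inducible Gal4–ROR gamma fusion and UAS-driven Photinus luciferase, incubated 20 hr after 700 uM copper sulfate.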
Potency is read from the fitted curve at half-maximal effect.

Potency, inconclusive:
c1ccc2c(c1)OCCOCCOCCOCCOCCOc1ccccc1OCCOCCOCCO2 31.6 µM [activator, single point], O=S(=O)(Nc1ccc2nc(-c3ccc(Br)o3)[nH]c2c1)c1ccccc1 14.1 µM [activator, partial curve], O=c1[nH]c(/C=C/c2ccccc2)c([N+](=O)[O-])c(=O)[nH]1 20 µM [inhibitor, single point], CCCC(=O)Nc1ccc(-c2csc(-c3cccnc3)n2)cc1 0.562 µM [activator, partial curve], Cc1cc2nn(-c3ccc(Cl)cc3)nc2cc1N 25.1 µM [inhibitor, single point], CC1(c2ccc(Cl)c(Cl)c2)NC(=S)N2C1NC(=S)N2c1ccccc1 (configuration not stated) 20 µM [inhibitor, single point], CCN1C(=O)C(CC(=O)Nc2ccc(Br)cc2)N(CCCc2ccccc2)C1=S (configuration not stated) 35.5 µM [inhibitor, single point], O=C(NCCc1ccccc1)c1ccc(CS(=O)(=O)c2ccc(Br)cc2)o1 35.5 µM [activator, single point], Cc1ccc(NC(=S)N2CCSC2c2cccs2)cc1 (configuration not stated) 12.6 µM [inhibitor, single point], CN(C)/C=N/C(=S)Nc1ccc(Br)cc1F 11.2 µM [inhibitor, partial curve, poor fit], COc1ccc(NC(=O)c2ccc(-c3ccccc3)cc2)cc1NS(=O)(=O)c1ccc(F)cc1 2.82 µM [activator, partial curve], CC(=O)c1cccc(-n2nnnc2SCC(=O)Nc2cccc(NC(=O)c3ccco3)c2)c1 12.6 µM [activator, single point], Cc1noc(C)c1C(=O)N1CCCC(N2CCN(c3cccc(C(F)(F)F)c3)CC2)C1 (configuration not stated) 35.5 µM [activator, single point], CC(C)NC(=O)COC(=O)c1ccc(O)cc1 0.794 µM [activator, full curve, poor fit], COc1ccc2c(CC(=O)NC3CCCc4ccccc43)coc2c1 (configuration not stated) 12.6 µM [activator, partial curve], Cc1cccnc1NCc1ccc(O)c2ncccc12 5.62 µM [inhibitor, single point], Cc1cc(C(=O)Nc2ccc3ccccc3c2)oc1C 14.1 µM [inhibitor, single point], COc1ccc(S(=O)(=O)Nc2ccc(C(F)(F)F)cc2)cc1OC 31.6 µM [activator, single point], CC(=O)Nc1ccc(C(=S)NCCCO)cc1 10 µM [inhibitor, partial curve, poor fit], O=C1C2=CC[C@@H]3C(=O)N(c4ccc(F)cc4F)C(=O)[C@H]3[C@H]2[C@H](O)[C@H]2O[C@H]12 3.98 µM [inhibitor, single point], CC(C)C(=O)Nc1cc(S(=O)(=O)Nc2ccc(Cl)cc2)ccc1Cl 12.6 µM [activator, partial curve], CN1CCN(c2ncc3nc(-c4cccc(C#N)c4)c(=O)n(Cc4ccc(F)cc4)c3n2)CC1 35.5 µM [inhibitor, single point], O=C1CCN(C(=O)CSc2ccc(Cl)cc2)N1 12.6 µM [inhibitor, partial curve, poor fit], O=C(N/N=C/c1c[nH]c2ccccc12)C1CC1c1ccccc1 (configuration not stated) 12.6 µM [inhibitor, single point], CCc1cccc(CC)c1NC(=O)c1cc(CN2C(=O)c3ccccc3C2=O)ccc1OC 31.6 µM [activator, single point], O=c1[nH]c(Cn2nnc(-c3ccccc3)n2)nc2scc(-c3ccccc3)c12 20 µM [activator, single point], COc1ccc(-c2cc(C(=O)N3CCCCCC3)c3cc(C)ccc3n2)cc1 35.5 µM [activator, single point], COc1cc(NC(=O)C2=C(N3CCOCC3)/C(=C\c3ccc(Br)cc3)CC2)cc(OC)c1OC 11.2 µM [activator, partial curve], Cc1cc(C)nc(-n2nc(C)cc2NC(=O)c2cccc(S(=O)(=O)N3CCOCC3)c2)n1 0.501 µM [inhibitor, full curve, poor fit], COc1cccc2c(=O)c(C(=O)NCc3cccs3)c[nH]c12 4.47 µM [activator, full curve], O=C(Nc1ccc(-c2cn3ccccc3n2)cc1)c1cccs1 35.5 µM [inhibitor, single point], O=C(Nc1ccccc1)C1=C[C@@H](c2ccc(Br)cc2)C[C@@H](OCc2ccc(CO)cc2)O1 22.4 µM [inhibitor, single point], Cc1cc(CNC(=O)COc2cc(F)ccc2[N+](=O)[O-])c2ccccc2n1 15.8 µM [activator, single point], COc1cccc(/C=C2\Oc3ccc(O)cc3C2=O)c1O 15.8 µM [inhibitor, single point], Oc1ccc2c(c1)oc1cc(O)ccc12 12.6 µM [activator, single point], CCOC(=O)C1=C(C)NC(C)=C(C(=O)OCCNC(=O)c2cccnc2)C1c1cccc([N+](=O)[O-])c1 (configuration not stated) 8.91 µM [activator, partial curve], O=S(=O)(Nc1nc2ccccc2nc1Nc1ccc2c(c1)OCCO2)c1cccs1 11.2 µM [activator, single point], CCOC(=O)c1c(NC(=O)C(Sc2ccccc2)c2ccccc2)sc(C(=O)N(C)C)c1C (configuration not stated) 20 µM [activator, partial curve, poor fit], CCN(CC(=O)NCc1ccc(Cl)cc1)C(=O)CSc1ccc(Br)cc1 31.6 µM [activator, single point], CCC(=C(c1ccc(OC)cc1)c1ccc(OC)cc1)c1cn(CC(O)CN(CCO)CCO)c2ccccc12 (configuration not stated) 35.5 µM [inhibitor, single point], Cn1nc(-c2ccc(C(=O)NCCO)cc2)c2ccccc2c1=O 10 µM [inhibitor, single point], Cc1cccc(C(=O)Nc2nc(C)c(C(=O)Nc3ccc4c(c3)CCC4)s2)c1 35.5 µM [inhibitor, partial curve, poor fit], CC(=O)NC(C)(C)C1CC=C(C)/C(=N\O)C1 (configuration not stated) 35.5 µM [inhibitor, single point], CCN1CCN(c2cc(C)c3cc(NC(=S)N4CCCCC4)ccc3n2)CC1 35.5 µM [inhibitor, single point], CC(CCc1ccccc1)NC(=O)C1CCCN(C(=O)c2cc3sccc3n2C)C1 (configuration not stated) 10 µM [activator, partial curve, poor fit], Cc1ccc(S(=O)(=O)Nc2ccc(Cl)cc2C(=O)c2ccc(F)cc2)cc1 35.5 µM [activator, single point], N=c1ccn(CC(=O)c2ccc(-c3ccccc3)cc2)cc1 12.6 µM [activator, single point], COc1ccc(NC(=O)COc2ccc(-c3nn(C)c(=O)c4ccccc34)cc2)cc1 35.5 µM [inhibitor, single point]

Potency, active:
Cc1cc(NC(=O)CN2CCOCC2)n(-c2nc3ccccc3s2)n1 3.55 µM, S=C1NC(c2ccccc2)=CC(c2ccccc2)N1 (configuration not stated) 3.55 µM, Cc1ccc(C)c(-n2c(Cc3cccs3)n[nH]c2=S)c1 7.08 µM, Cc1cnc(NC(=O)CSc2nnc(Cc3ccccc3)o2)s1 10 µM, COc1ccc(-c2n[nH]c(=S)n2-c2ccc(C)cc2C)cc1 2.82 µM, O=C1CCCN1CCC1CCN(C2CC(=O)N(Cc3ccc(N4CCCC4=O)cc3)C2=O)CC1 (configuration not stated) 7.08 µM, O=C(N/N=C/c1cccc([N+](=O)[O-])c1O)c1cccs1 1.12 µM, O=C1CN(C(=S)NC(=O)c2ccc(-c3ccccc3)cc2)CCN1 1.78 µM, CCCn1c(/C=N/Nc2nc3ccccc3[nH]2)nc2ccccc21 2 µM

Potency, inactive:
Cc1nc(SCC(=O)OCc2ccccc2)c(C#N)c(-c2ccccc2)c1C(=O)Nc1ccccc1, COc1ccc(C(=O)NC(C)Cc2cnccn2)cc1OC1CCN(C(C)C)CC1 (configuration not stated), c1csc(-c2ccc3ccccc3n2)c1, Cc1ccc(C)c(S(=O)(=O)c2c[nH]c(=S)[nH]c2=O)c1, Cc1cccc(/C=C2\CS/C(=C\c3cccc(C)c3)C2=O)c1, COc1ccc2[nH]cc(CCNc3cc(-c4cccnc4)ncn3)c2c1, O=C(CSc1nnc(-c2ccccn2)o1)Nc1ccccc1F, C=CCN1C(=O)/C(=C/c2ccc(OCC(=O)O)cc2)S/C1=N/c1nccs1, COc1ccc(S(=O)(=O)NCC(=O)Nc2cccc(C)c2C)cc1OC, CCC(C)(C#CCN1CCCCC1)OC(C)=O (configuration not stated)
